# Out of some 390,000 compounds screened, about 820 (0.21%) were called active. Inconclusive means that the source gave no clear call. Such entries were picked first, then a sample of the others. The call rests on the fitted dose curve; in most records, active means well fitted inhibition curve with a large enough effect; inconclusive means small, poorly fitted or top-dose-only effect, or another doubt; inactive means no such curve, though single readings can be large or run the other way. Where the call is inconclusive, the potency comes from a doubtful curve fit.
# Amino acid sequences for entries named in this document (tags omitted).
# UniProt Q92830, whole entry, looked up: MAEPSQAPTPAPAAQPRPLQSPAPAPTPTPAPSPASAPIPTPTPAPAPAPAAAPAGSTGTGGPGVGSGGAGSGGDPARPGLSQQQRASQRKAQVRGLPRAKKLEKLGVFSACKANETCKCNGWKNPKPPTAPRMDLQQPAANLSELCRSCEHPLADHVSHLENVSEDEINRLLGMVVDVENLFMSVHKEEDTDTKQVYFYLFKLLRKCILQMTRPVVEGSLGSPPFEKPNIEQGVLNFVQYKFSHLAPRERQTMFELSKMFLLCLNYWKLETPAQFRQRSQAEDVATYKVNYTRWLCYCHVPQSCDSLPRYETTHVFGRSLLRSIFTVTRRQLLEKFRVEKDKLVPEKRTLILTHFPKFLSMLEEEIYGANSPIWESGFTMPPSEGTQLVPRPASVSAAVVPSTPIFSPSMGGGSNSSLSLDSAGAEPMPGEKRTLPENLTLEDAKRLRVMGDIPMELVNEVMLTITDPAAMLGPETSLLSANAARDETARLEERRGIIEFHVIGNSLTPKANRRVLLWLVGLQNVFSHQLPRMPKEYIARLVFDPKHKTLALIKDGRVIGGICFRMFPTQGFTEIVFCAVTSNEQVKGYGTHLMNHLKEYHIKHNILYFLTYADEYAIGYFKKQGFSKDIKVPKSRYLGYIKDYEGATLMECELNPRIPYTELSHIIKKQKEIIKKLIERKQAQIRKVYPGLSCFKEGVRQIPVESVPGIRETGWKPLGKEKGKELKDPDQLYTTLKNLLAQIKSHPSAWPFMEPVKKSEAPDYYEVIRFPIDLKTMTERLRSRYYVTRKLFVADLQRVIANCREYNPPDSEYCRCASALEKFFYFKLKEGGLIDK
# Target: Histone acetyltransferase KAT2A (Homo sapiens) (UniProt Q92830)
# Assay: qHTS Assay for Inhibitors of GCN5L2
# Conditions: GCN5L2 HAT assay, ThioGlo1 CoA-SH fluorescence; activity change, negative = inhibition: at 58.9 µM (top of the series) unless noted
# Procedure, shortened: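 GCN5L2 (20 nM) in 50mM HEPES pH 7.5, 0.1mM EDTA, 0.01% Tween-20 preincubated 15 min with compounds at room temperature. Reaction started with H3(1-25) 75uM, acetyl-CoA 70uM, ThioGlo1 50uM; CoA-thiol fluorescence (Ex340/Em540) read at 0 and 20 min.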
# On the % scale 0 is the no-effect control and ±100 the full control effect; potency means the concentration at half of the fitted maximal effect.
Structure (SMILES),Potency,"activity change, negative = inhibition"
CNS(=O)(=O)c1cc(Br)ccc1S(=O)c1ccccc1C(=O)O (stereo unspecified),"inconclusive: 39.8 µM [inhibitor, partial curve]",–
CCCC(=O)Nc1ccc2nc(C)n(Cc3ccccc3Cl)c(=O)c2c1,–,inactive: 0.0483%
Cc1ccccc1-n1sc2cc(F)ccc2c1=O,active: 1.26 µM,–
COc1ccc(/C=N/N2CCOCC2)cc1OCc1ccccc1,–,inactive: -8.19%
CC(=O)Nc1ccc(S(=O)(=O)Nc2nc3ccccc3nc2Nc2ccc(C(=O)O)c(O)c2)cc1,"inconclusive: 22.4 µM [inhibitor, single point]",–
CCOC(=O)c1cnc(Nc2nc3ccccc3o2)nc1C,–,inconclusive: -88.2% [inhibitor] [at 0.501 µM]
FC(F)Oc1ccc(NC(=S)Nc2ccc3cn[nH]c3c2)cc1,–,inactive: -1.96%
Cc1cc(C)cc(C(N)=Nc2cccc(C#N)c2)c1,"inconclusive: 6.31 µM [inhibitor, single point]",–
COc1ccc(-c2cn3nc(N4CCC(C(=O)NCc5ccc(F)cc5)CC4)sc3n2)cc1,"inconclusive: 5.62 µM [inhibitor, single point]",–
CCOC(=O)c1sc2ncnc(NCc3ccco3)c2c1C,"inconclusive: 39.8 µM [inhibitor, single point]",–
Cc1cccc2c1CC(C)(C)N=C2C1=C(O)CCCC1=O,"inconclusive: 39.8 µM [inhibitor, single point]",–
CN(Cc1cccnc1)C(=O)c1cc(COc2ccc3c(c2)CCCC3)on1,"inconclusive: 0.1 µM [inhibitor, full curve, poor fit]",–
COc1ccc(N(CC(=O)Nc2ccc(C)c(C)c2)C2=NC3CS(=O)(=O)CC3S2)cc1 (stereo unspecified),"inconclusive: 7.08 µM [inhibitor, single point]",–
COc1cc(/C=C(\C#N)C(=O)Nc2ccccc2)ccc1OCCN1CCOCC1,"inconclusive: 12.6 µM [inhibitor, partial curve]",–
COc1ccccc1NC(=O)C(CC(C)C)NC(=O)C1CCCCC1 (stereo unspecified),–,inconclusive: -37.2% [inhibitor]
O=C1CN(C(=O)c2ccc(S(=O)(=O)N3CCCC3)cc2)C(c2ccc(F)cc2)c2cc(F)ccc2N1 (stereo unspecified),–,inactive: -6.4%
N#CCCN(C(=O)COC(=O)C12CC3CC(CC(O)(C3)C1)C2)c1ccc(F)cc1,"inconclusive: 5.62 µM [inhibitor, single point]",–
COCCN(C(=O)COC(=O)c1ccccc1NCc1ccco1)c1c(N)n(Cc2ccccc2)c(=O)[nH]c1=O,"inconclusive: 4.47 µM [inhibitor, partial curve]",–
O=C(Nc1nnc(SCC(=O)N2CCOCC2)s1)C1CC(=O)N(c2ccc(F)cc2)C1 (stereo unspecified),"inconclusive: 0.158 µM [inhibitor, full curve, poor fit]",–
COCCNC(=O)C1CC(=O)N(CCc2ccccc2)C1 (stereo unspecified),"inconclusive: 0.708 µM [inhibitor, single point]",–
COC(=O)C1CSC(C(=O)OC)N1C(=O)CN1CCN(c2ccccc2)CC1 (stereo unspecified),–,inactive: -3%
COc1ccc(OC)c(NC(=O)CSc2nnc(CCCO)n2-c2ccccc2)c1,"inconclusive: 39.8 µM [inhibitor, single point]",–
Cc1ccc(S(=O)(=O)c2c(C)cc(C)[nH]c2=O)cc1,–,inactive: -13.2%
CCn1c2ccccc2c2cc(NC(=O)COc3ccc(OC)cc3)ccc21,"inconclusive: 0.708 µM [inhibitor, full curve, poor fit]",–

# Record cards, from the list above.
# O=C1CN(C(=O)c2ccc(S(=O)(=O)N3CCCC3)cc2)C(c2ccc(F)cc2)c2cc(F)ccc2N1 (stereo unspecified) as listed: activity change, negative = inhibition: inactive: -6.4%
# Cc1ccccc1-n1sc2cc(F)ccc2c1=O as listed: Potency: active: 1.26 µM

# An excerpt from above in order of heavy-atom count, smallest number first.
Structure (SMILES),Potency,"activity change, negative = inhibition"
Cc1ccc(S(=O)(=O)c2c(C)cc(C)[nH]c2=O)cc1,–,inactive: -13.2%
CCOC(=O)c1cnc(Nc2nc3ccccc3o2)nc1C,–,inconclusive: -88.2% [inhibitor] [at 0.501 µM]
CC(=O)Nc1ccc(S(=O)(=O)Nc2nc3ccccc3nc2Nc2ccc(C(=O)O)c(O)c2)cc1,"inconclusive: 22.4 µM [inhibitor, single point]",–

# (continued)

Structure (SMILES),Potency,"activity change, negative = inhibition"
CCCc1cc(CNC(=O)C2CCC(=O)N(Cc3ccccc3OC)C2)on1 (stereo unspecified),–,inactive: -3.7%
Cc1ccc(-n2c(=O)c3ccc(C(=O)NCc4ccco4)cc3n(Cc3ccc(Cl)cc3)c2=O)cc1,–,inactive: 2.98%
CC(C(=O)NC1CCCC1)N1CCN(S(=O)(=O)c2ccccc2Cl)CC1 (stereo unspecified),"inconclusive: 28.2 µM [inhibitor, single point]",–
Cc1ccccc1Nc1nc(N)nc(CSc2nnc(-c3ccccc3)n2C)n1,"inconclusive: 20 µM [inhibitor, single point]",–
CCOc1ccc(N2CC(O)(c3ccc(F)cc3)[N+]3=C2CCCC3)cc1 (stereo unspecified),–,inactive: -2.62%
CC(=O)C1=C(O)C(=O)OC1c1ccc(Cl)cc1 (stereo unspecified),"inconclusive: 8.91 µM [inhibitor, single point]",–
CN(CCc1ccccn1)C(=O)CCC1CCCN(Cc2ccccc2OC(F)F)C1 (stereo unspecified),"inconclusive: 10 µM [inhibitor, single point]",–
O=C1COc2ccc(C(=O)COC(=O)c3cnc(Cl)c(Cl)c3)cc2N1,–,inactive: -7.13%
Oc1ccc(Br)cc1-c1cc(-c2ccccc2Cl)[nH]n1,–,inactive: -10.3%
OC(COc1cccc2ccccc12)CN1CCN(c2cccc(Cl)c2)CC1 (stereo unspecified),"inconclusive: 39.8 µM [inhibitor, single point]",–
FC(F)(F)c1ccc(Cl)c(-n2c(Cc3cccs3)n[nH]c2=S)c1,–,inactive: -4.24%
Cc1ccc(-n2cnc3cc(C(=O)NCc4ccccc4Cl)ccc32)c(C)c1,–,inactive: -8.81%
CC(Sc1ccc2nnc(-c3ccc(F)cc3)n2n1)C(=O)O (stereo unspecified),–,inactive: -7.15%
Cc1c(S(=O)(=O)O)oc2c1C(=O)C(=O)c1c-2ccc2c1CCCC2(C)C,"inconclusive: 28.2 µM [inhibitor, single point]",–
CCc1ccccc1N(CC(=O)N/N=C/c1ccc(OC(=O)OC)c(OC)c1)S(C)(=O)=O,"inconclusive: 1 µM [inhibitor, full curve, poor fit]",–
COC(=O)/C=C1\SC(N2CCOCC2)=C(c2ccc(OC)cc2)C1=O,"inconclusive: 39.8 µM [inhibitor, single point]",–
COCCCNC(=O)N1c2ccccc2Sc2ccccc21,"inconclusive: 7.08 µM [inhibitor, single point]",–
Cc1ccc2nc(C3CCCN(C(=S)Nc4cccc(C)c4C)C3)[nH]c2c1 (stereo unspecified),–,inactive: -3.41%
Nc1nnc(CC(=O)N/N=C/c2ccccc2OCc2ccccc2F)s1,"inconclusive: 17.8 µM [inhibitor, partial curve]",–
O=C(CCC(=O)N1CCSc2ccccc21)NC1CCCCC1,"inconclusive: 6.31 µM [inhibitor, single point]",–
Cc1cccn2c(=O)cc(COc3cccc(NC(=O)COc4ccccc4)c3)nc12,–,inactive: -4.42%
COc1ccc(-n2ncc3c(SCC(=O)NNC(C)=O)ncnc32)cc1,"inconclusive: 0.562 µM [inhibitor, partial curve, poor fit]",–
Cc1ccc(Cl)c(OCCCCN(C)Cc2ccccc2)c1,"inconclusive: 0.794 µM [inhibitor, single point]",–
Cc1ccc(C(=O)C[n+]2cc(-c3ccc(C)cc3)n3c2CCCCC3)cc1,"inconclusive: 0.794 µM [inhibitor, single point]",–

Structure (SMILES),Potency,"activity change, negative = inhibition"
O=C1Nc2ccccc2C1c1ncc(C(F)(F)F)cc1Cl (stereo unspecified),"inconclusive: 39.8 µM [inhibitor, partial curve, poor fit]",–
COc1cc(CC(NC(C)=O)C(=O)NC2CCN(C(=O)Nc3ccccc3C)CC2)cc(OC)c1 (stereo unspecified),–,inactive: -0.0224%
COc1cc(SC)ccc1C(=O)N1CC(C)OC(C)C1 (stereo unspecified),"inconclusive: 39.8 µM [inhibitor, single point]",–
Cc1ccsc1/C=C1\SC(N)=NC1=O,"inconclusive: 1.58 µM [inhibitor, single point]",–
Clc1ccccc1-c1nc(NCc2cccs2)c2ccccc2n1,"inconclusive: 31.6 µM [inhibitor, partial curve]",–
CCOC(=O)C1=C(C)N(C)C(=S)NC1c1ccc(Cl)cc1 (stereo unspecified),–,inactive: -1.44%
O=C(NCc1ccco1)c1cc2c(s1)CSC2,"inconclusive: 39.8 µM [inhibitor, single point]",–
COc1ccccc1C(C)NC(=O)c1ccc(NC(=O)CC2SC(N3CCCC3)=NC2=O)cc1 (stereo unspecified),"inconclusive: 0.631 µM [inhibitor, single point]",–
CCCCCCc1cc2cc(C(=O)NC)c(=N)oc2cc1O,"inconclusive: 0.708 µM [inhibitor, single point]",–
CCc1ccccc1NC(=O)C1CCCN(c2cnccn2)C1 (stereo unspecified),–,inactive: 0.961%
Cc1ncc(CO)c(CN)c1O,"inconclusive: 31.6 µM [inhibitor, single point]",–
COc1cccc(C(=O)Oc2c(Br)cc(Br)cc2/C=N/NC(=O)c2cc(C)[nH]n2)c1,–,inactive: -1.53%
c1ccc(-c2cn3cccnc3n2)cc1,"inconclusive: 22.4 µM [inhibitor, partial curve, poor fit]",–
O=C(NCC(c1ccco1)N1CCCC1)c1cccc(S(=O)(=O)Nc2ccc(Br)cc2)c1 (stereo unspecified),"inconclusive: 0.708 µM [inhibitor, single point]",–
O=C(CSc1c2c(nc3cc(Cl)ccc13)CCCC2)NCc1ccccc1Cl,–,inactive: -2.31%
COc1cc(/C=C2/SC(=S)N(CC(=O)O)C2=O)ccc1OC(=O)c1ccco1,–,inactive: -11.3%
CC1CCCC(C)N1CCCNC(=O)CN1C(=O)c2cccnc2Oc2ccc(Cl)cc21 (stereo unspecified),"inconclusive: 8.91 µM [inhibitor, single point]",–
Cc1ccc(Cn2c(=S)[nH]c3ccc(N4CCOCC4)cc3c2=O)o1,"inconclusive: 31.6 µM [inhibitor, single point]",–
COc1ccc(OC)c(C(=O)c2coc3ccc(OC(C)=O)cc23)c1,–,inactive: 0.125%
COc1cccc(CNC(=S)Nc2cc(C)ccc2C)c1,–,inactive: -13.4%
COc1ccc(C2CC(c3cccs3)=NN2c2ccccc2)cc1 (stereo unspecified),"inconclusive: 35.5 µM [inhibitor, single point]",–
Cc1ccccc1C1NS(=O)(=O)N=C1N (stereo unspecified),"inconclusive: 1 µM [inhibitor, partial curve, poor fit]",–
O=C(NCCNS(=O)(=O)c1cccc(C(F)(F)F)c1)c1cc(OCC(F)(F)F)ccc1OCC(F)(F)F,"inconclusive: 5.62 µM [inhibitor, single point]",–
